Assay results taken from patent publication US12358951 (dated 2025).

Assay: general procedure: Fmoc solid-phase peptide synthesis; 2-chlorotrityl chloride resin; HOBt couplings; PyAOP/DIPEA or triphosgene/2,4,6-trimethylpyridine for last buil
Conditions: for cyclisation yield: cyclisation step
[1] = late stage modification step, trifluoroacetate salt
[2] = whole synthesis, trifluoroacetate salt

Substance | step yield [1] | further results
(3S,6S,9S,12S,15S,18R)-6-(Aminomethyl)-9-cyclohexyl-16-(cyclopentylmethyl)-18-ethyl-3-((S)-1-hydroxyethyl)-12-isobutyl-13,15-dimethyl-1,4,7,10,13,16-hexaazacyclooctadecane-2,5,8,11,14-pentaone (trifluoroacetate salt) | 48% | crude yield [2]: 51% crude yield
tert-Butyl N-[(1S)-2-[[(3R,6S,9S,12S,15S,18R,19R)-9-(benzyloxycarbonylaminomethyl)-12-cyclohexyl-19-hexyl-15-isobutyl-3,16,18-trimethyl-5,8,11,14,17-pentaoxo-1-oxa-4,7,10,13,16-pentazacyclononadec-6-yl]methylamino]-1-[(tert-butoxycarbonylamino)methyl]-2-oxo-ethyl]carbamate | – | step yield (coupling step, trifluoroacetate salt): 100% yield
Benzyl N-[[(3R,6S,9 S,12S,15S,18R,19R)-6-(aminomethyl)-12-cyclohexyl-19-hexyl-15-isobutyl-3,16,18-trimethyl-5,8,11,14,17-pentaoxo-1-oxa-4,7,10,13,16-pentazacyclononadec-9-yl]methyl]carbamate | 100% yield | –
tert-Butyl N-[[(3R,6S,9S,12S,15S,18R,19R)-9-(benzyloxycarbonylaminomethyl)-12-cyclohexyl-19-hexyl-15-isobutyl-3,16,18-trimethyl-5,8,11,14,17-pentaoxo-1-oxa-4,7,10,13,16-pentazacyclononadec-6-yl]methyl]carbamate | – | cyclisation yield (on linear precursor, trifluoroacetate salt): 55% yield
(2S)-2,3-Diamino-N-[[(3R,6S,9S,12S,15S,18R,19R)-9-(aminomethyl)-12-cyclohexyl-19-hexyl-15-isobutyl-3,16,18-trimethyl-5,8,11,14,17-pentaoxo-1-oxa-4,7,10,13,16-pentazacyclononadec-6-yl]methyl]propanamide (trifluoroacetate salt) | 36% yield | –
tert-Butyl N-[3-[[(3R,6S,9S,12S,15S,18R,19R)-9-[(tert-butoxycarbonylamino)methyl]-12-cycloheptyl-19-hexyl-3,16,18-trimethyl-5,8,11,14,17-pentaoxo-15-propyl-1-oxa-4,7,10,13,16-pentazacyclononadec-6-yl]methylamino]propyl]carbamate | 46.3% | –
tert-Butyl N-[3-[3-[[(3R,6S,9S,12S,15S,18R,19R)-9-(benzyloxycarbonylaminomethyl)-19-[[(1S,5R)-3-bicyclo[3.2.1]octanyl]methyl]-12-cycloheptyl-3,16,18-trimethyl-5,8,11,14,17-pentaoxo-15-propyl-1-oxa-4,7,10,13,16-pentazacyclononadec-6-yl]methoxy]propylamino]propyl]carbamate | 42.9% | –
(3S,6S,9S,12S,15S,18S)-6-(Aminomethyl)-16-butyl-9-cyclohexyl-3-((S)-1-hydroxyethyl)-18-(hydroxymethyl)-12-isobutyl-13,15-dimethyl-1,4,7,10,13,16-hexaazacyclooctadecane-2,5,8,11,14-pentaone | – | purity (crude or final not stated) (late stage modification step, LCMS method B, TFA salt): 82%
(3S,6S,9S,12S,15S,18R)-6-(Aminomethyl)-3-((3-aminopropoxy)methyl)-15-butyl-9-cyclohexyl-16-(cyclopropylmethyl)-12-isobutyl-13,18-dimethyl-1,4,7,10,13,16-hexaazacyclooctadecane-2,5,8,11,14-pentaone | – | cyclisation yield (trifluoroacetate salt): 30%; final purity (method not given) [1]: purity 87%
(3S,6S,9S,12S,15S,18R)-6-(Aminomethyl)-9-cyclohexyl-18-(2-fluoroethyl)-16-hexyl-3-((S)-1-hydroxyethyl)-12-isobutyl-13,15-dimethyl-1,4,7,10,13,16-hexaazacyclooctadecane-2,5,8,11,14-pentaone | 37% | final purity (method not given) [1]: purity 87%
tert-Butyl (NZ)—N-[[[3-[[(3R,6S,9S,12S,15S,18R,19R)-9-(aminomethyl)-12-cycloheptyl-3,16,18-trimethyl-5,8,11,14,17-pentaoxo-15-propyl-19-(spiro[3.3]heptan-2-ylmethyl)-1-oxa-4,7,10,13,16-pentazacyclononadec-6-yl]methoxy]cyclobutyl]amino]-(tert-butoxycarbonylamino)methylene]carbamate | 88.8% yield | –
tert-Butyl N-[[6-[[(3R,6S,9S,12S,15S,18R,19R)-9-[(tert-butoxycarbonylamino)methyl]-12-cycloheptyl-19-hexyl-3,16,18-trimethyl-5,8,11,14,17-pentaoxo-15-propyl-1-oxa-4,7,10,13,16-pentazacyclononadec-6-yl]methylamino]pyrimidin-4-yl]methyl]carbamate | 83% yield | –
(1R,4S,7S,10S,13S,16R,19R)-10-(Aminomethyl)-7-cyclohexyl-13-[(1S)-1-hydroxyethyl]-4-isobutyl-3,16-dimethyl-18-oxa-3,6,9,12,15-pentaazabicyclo[17.8.0]heptacosane-2,5,8,11,14-pentone (trifluoroacetate salt) | – | isolated yield [2]: 62%
(3R,6S,9S,12S,15S,18R,19R)-6-(((2-Azaspiro[3.3]heptan-6-yl)oxy)methyl)-9-(aminomethyl)-12-cycloheptyl-19-hexyl-3,16,18-trimethyl-15-propyl-1-oxa-4,7,10,13,16-pentaazacyclononadecane-5,8,11,14,17-pentaone | 21% | cyclisation yield (trifluoroacetate salt): 39%
Benzyl-N-[[(3R,6S,9S,12S,15S,18R,19R)-6-(2-amino-2-oxo-ethyl)-12-cycloheptyl-19-hexyl-3,16,18-trimethyl-5,8,11,14,17-pentaoxo-15-prop yl-1-oxa-4,7,10,13,16-pentazacyclononadec-9-yl]methyl]carbamate | 66.4% | –
(3S,6S,9S,12S,15S)-6-(Aminomethyl)-16-(4-butylbenzyl)-9-cyclohexyl-3-(hydroxymethyl)-12-isobutyl-13,15-dimethyl-1,4,7,10,13,16-hexaazacyclooctadecane-2,5,8,11,14-pentaone | 24% | –
N-[[(3R,6S,9S,12S,15S,18R,19R)-9-(Aminomethyl)-12-cyclohexyl-19-hexyl-15-isobutyl-3,16,18-trimethyl-5,8,11,14,17-pentaoxo-1-oxa-4,7,10,13,16-pentazacyclononadec-6-yl]methyl]methanesulfonamide (trifluoroacetate salt) | 41% yield | –
(3S,6S,9S,12S,15S,18R)-6-(Aminomethyl)-3-((3-aminopropoxy)methyl)-15,16-dibutyl-9-cyclohexyl-12-isobutyl-13,18-dimethyl-1,4,7,10,13,16-hexaazacyclooctadecane-2,5,8,11,14-pentaone | – | isolated yield [2]: 39% yield
